The values that follow come from patent US6468971B1, “Maintaining kidney function during surgery or trauma” (Board of Supervisors of Louisiana State University and …, priority 1998, dated 2002).

For this assay, the system named is isoflurane-anesthetized rats under surgery. The assay is described as follows: Renal response to drug given after start of surgery and isoflurane anesthesia. It counts as in vivo, Sprague-Dawley rat.
The mark [1] stands for this setting: continuous intravenous infusion after start of surgery and isoflurane.
Setting [2] is: intravenous bolus injection during isoflurane anesthesia and surgery.

On to `NS(=O)(=O)c1cc(C(=O)O)c(NCc2ccco2)cc1Cl` [furosemide], for which the “time urine flow rate, sodium and potassium excretion remained at high levels” value (continuous intravenous infusion) is reported as “about 110 minutes”. Besides, under setting [1], the urinary potassium excretion entry is recorded as “large increases” and the urinary sodium excretion result is on record as “large increases”. Under setting [2], the urinary potassium excretion entry is “large urinary loss of sodium and potassium”; the urinary sodium excretion entry was “large urinary loss of sodium and potassium”.
